Source: PubChem BioAssay AID220 (DTP/NCI, 2004)
The list shows only some results of the screen, not a fair sample: it gathers tests that were run many times, whatever their T/C, doses with no T/C, and many T/C values between a quarter and a half above the control. Other doses and runs of a compound stand elsewhere. T/C is the treated group as % of the vehicle group. Schedule codes are those of the source, read here as Q, the interval in days (D) or hours (H), X, the number of doses. Some T/C values carry the count of animals alive at the toxicity check (mostly the fifth day); where none is given, no animal had died by that day. Some entries give survivors of the animals treated and no T/C: the source files T/C as zero there, which appears to mark a toxic dose or a test without result, not a measured value. Survivors were counted at the toxicity check, usually on the fifth day, unless a day is given; later deaths do not show. Some doses were run more than once; the results are listed from low to high. Some structures stand for samples that the source files as different forms (salt, stereo form or complex); doses refer to the form tested.

Test system: CD8F1 mice, subcutaneous mammary adenocarcinoma, T/C%
Experiment: NCI In Vivo Anticancer Drug Screen. Data for tumor model Mammary Adenocarcinoma CD8F1 (subcutaneous) in CD8F1
Conditions: higher T/C = larger tumour; for T/C: evaluated on day 30
Procedure, shortened: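 Mice carrying transplanted tumors received test compound, and survival or tumor size was recorded. Each value is the treated-group measurement divided by the corresponding measurement in vehicle-dosed controls.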

For Cc1ccc(C(=O)[O][Hg][CH2]C2COC([CH2][Hg][O]C(=O)c3ccc(C)cc3)CO2)cc1 (stereo not drawn), which survivor count (T/C endpoint: median tumor weight (est.), dose: 200.0 mg/kg/injection, schedule: Q07DX005 (ip), vehicle: Klucel (hydroxypropylcellulose) (HPC)) is on record?
Its survivor count is 1 of 10 on day 32.

For CCCCCNc1ncnc2c(C)[nH]nc12, which survivor count (T/C endpoint: median tumor weight change, dose: 500.0 mg/kg/injection, schedule: Q01DX001 (ip), vehicle: Klucel (hydroxypropylcellulose) (HPC)) is on record?
The survivor count was 1 of 10 on day 27.

What about the survivor count (T/C endpoint: median tumor weight change, dose: 1000.0 mg/kg/injection, schedule: Q01DX001 (ip), vehicle: Klucel (hydroxypropylcellulose) (HPC)) of the same compound?
Its survivor count is 0 of 10 on day 27.

COc1ccc(S(=O)(=O)N/N=C/C(=O)O)cc1 was tested. Which T/C (T/C endpoint: median tumor weight (est.), dose: 12.5 mg/kg/injection, schedule: Q07DX005 (ip), vehicle: saline with Tween-80) did it give?
Its T/C is 141 % of control.

What about the T/C (T/C endpoint: median tumor weight (est.), dose: 50.0 mg/kg/injection, schedule: Q07DX005 (ip), vehicle: saline with Tween-80) of the same compound?
The T/C was 149 % of control [9 of 10 alive].

OC1CCCC2CCC[N-]C12.OC1CCCC2CCC[N-]C12.[Mn+2] (stereo not drawn) was tested. Which survivor count (T/C endpoint: median tumor weight (est.), dose: 400.0 mg/kg/injection, schedule: Q07DX005 (ip), vehicle: Klucel (hydroxypropylcellulose) (HPC)) did it give?
The survivor count was 5 of 10 on day 32.

Which survivor count (T/C endpoint: median tumor weight change, dose: 500.0 mg/kg/injection, schedule: Q01DX001 (ip), vehicle: suspension in saline) does the source give for CS(=O)(=O)CS(=O)(=O)OCCCl here?
The survivor count was 3 of 10 on day 31.

What about the survivor count (T/C endpoint: median tumor weight change, dose: 1000.0 mg/kg/injection, schedule: Q01DX001 (ip), vehicle: suspension in saline) of the same compound?
Its survivor count is 0 of 10 on day 31.

And the survivor count (T/C endpoint: median tumor weight change, dose: 2000.0 mg/kg/injection, schedule: Q01DX001 (ip), vehicle: suspension in saline)?
Its survivor count is 0 of 10 on day 31.

For S=C(Nc1ccc(Cl)c(Cl)c1)N1c2ccccc2-n2cccc2C1c1cccnc1 (stereo not drawn), which survivor count (T/C endpoint: median tumor weight change, dose: 2000.0 mg/kg/injection, schedule: Q01DX001 (ip), vehicle: Klucel (hydroxypropylcellulose) (HPC)) is on record?
The survivor count was 4 of 10 on day 29.

Which survivor count (T/C endpoint: median tumor weight change, dose: 250.0 mg/kg/injection, schedule: Q01DX001 (ip), vehicle: saline with Tween-80) does the source give for CCCCCCCCCCCCCC#CC(=O)O here?
Its survivor count is 1 of 10 on day 36.

What about the survivor count (T/C endpoint: median tumor weight change, dose: 500.0 mg/kg/injection, schedule: Q01DX001 (ip), vehicle: saline with Tween-80) of the same compound?
Its survivor count is 5 of 10 on day 36.

And the survivor count (T/C endpoint: median tumor weight change, dose: 1000.0 mg/kg/injection, schedule: Q01DX001 (ip), vehicle: saline with Tween-80)?
The survivor count was 0 of 10 on day 36 and 3 of 10 on day 29.

What does the source list for CN1CCN(CN2C(=O)C3C4C=CC(C3C2=O)C2C3C(=O)N(CN5CCN(C)CC5)C(=O)C3C42)CC1 (stereo not drawn)?
survivor count (T/C endpoint: median tumor weight change, dose: 115.0 mg/kg/injection, schedule: Q01DX005 (ip), vehicle: water): 6 of 10 on day 31; survivor count (T/C endpoint: median tumor weight change, dose: 180.0 mg/kg/injection, schedule: Q01DX001 (ip), vehicle: water): 2 of 10 on day 25; survivor count (T/C endpoint: median tumor weight change, dose: 206.5 mg/kg/injection, schedule: Q01DX001 (ip), vehicle: water): 0 of 10 on day 25; survivor count (T/C endpoint: median tumor weight change, dose: 300.0 mg/kg/injection, schedule: Q01DX001 (ip), vehicle: water): 6 of 10 on day 25; survivor count (T/C endpoint: median tumor weight change, dose: 344.2 mg/kg/injection, schedule: Q01DX001 (ip), vehicle: water): 0 of 10 on day 25; survivor count (T/C endpoint: median tumor weight change, dose: 500.0 mg/kg/injection, schedule: Q01DX001 (ip), vehicle: water): 2 of 10 on day 25; survivor count (T/C endpoint: median tumor weight change, dose: 573.8 mg/kg/injection, schedule: Q01DX001 (ip), vehicle: water): 0 of 10 on day 25; survivor count (T/C endpoint: median tumor weight change, dose: 833.3 mg/kg/injection, schedule: Q01DX001 (ip), vehicle: water): 0 of 10 on day 25; survivor count (T/C endpoint: median tumor weight change, dose: 956.3 mg/kg/injection, schedule: Q01DX001 (ip), vehicle: water): 0 of 10 on day 25

What does the source list for O=C(O)CCCCCCCC(=O)O?
survivor count (T/C endpoint: median tumor weight change, dose: 900.0 mg/kg/injection, schedule: Q01DX001 (ip), vehicle: distilled water + Tween-80): 1 of 10 on day 36; survivor count (T/C endpoint: median tumor weight change, dose: 1800.0 mg/kg/injection, schedule: Q01DX001 (ip), vehicle: distilled water + Tween-80): 0 of 10 on day 36; survivor count (T/C endpoint: median tumor weight change, dose: 3600.0 mg/kg/injection, schedule: Q01DX001 (ip), vehicle: distilled water + Tween-80): 0 of 10 on day 36

For CC1CN1C(=O)NCCCCCCNC(=O)N1CC1C (stereo not drawn), which survivor count (T/C endpoint: median tumor weight (est.), dose: 40.0 mg/kg/injection, schedule: Q07DX005 (ip), vehicle: Klucel (hydroxypropylcellulose) (HPC)) is on record?
The survivor count was 0 of 10 on day 30.

What about the survivor count (T/C endpoint: median tumor weight (est.), dose: 80.0 mg/kg/injection, schedule: Q07DX005 (ip), vehicle: Klucel (hydroxypropylcellulose) (HPC)) of the same compound?
Its survivor count is 0 of 10 on day 30.

Which T/C (T/C endpoint: median tumor weight (est.), dose: 25.0 mg/kg/injection, schedule: Q07DX005 (ip), vehicle: Klucel (hydroxypropylcellulose) (HPC)) does the source give for Ic1ncnc2c1ncn2C1CCCO1 (stereo not drawn) here?
The T/C was 131 % of control.
